Data source: PubChem BioAssay AID1259254 (NCATS, 2017)

Assay: 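Genome-wide screen for genes that prevent DNA re-replication in cancer cells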 (primary screen)
Cells: human HCT116 colorectal cancer cells
Reagents: single siRNA against human genes
Timing: 3 days
Read-out: 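Nuclei stained with Hoechst and imaged; cell-cycle phase assigned by DNA content; G2 share scaled per plate, non-targeting siRNA 0%, GMNN siRNA 100%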
Scale: G2 robust z-score and G2 cells, % of GMNN control: higher = more G2 cells, more excess DNA replication; raw share of cells in G2: higher = larger share of cells with G2 DNA content
Hit rule: 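Active siRNAs have a G2 robust z of 5 or more median absolute deviations over the median, which in these data means about 38% or higher of GMNN control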
Shown is a random part of about 59,000 reagents. About 1,550 of all reagents (2.6%) were called active. 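G2 share is only a proxy for re-replication; each gene was hit by three separate siRNAs, and active genes were retested.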 The raw values are shown without normalisation. Unmarked entries are inactive. The numbers tell different reagents against one gene apart. Not given: the amount of reagent.

| target | siRNA no. | G2 robust z-score | G2 cells, % of GMNN control | raw share of cells in G2 (%) |
| --- | --- | --- | --- | --- |
| TAS2R60 (taste 2 receptor member 60) | 1 | 0.116 | 3.78 | 5.29 |
| TAS2R60 (taste 2 receptor member 60) | 2 | 0.301 | 5.09 | 5.48 |
| TAS2R60 (taste 2 receptor member 60) | 3 | 3.88 | 30.3 | 16.4 |
| CHD1 (chromodomain helicase DNA binding protein 1) | 1 | -0.219 | 1.42 | 5.51 |
| CHD1 (chromodomain helicase DNA binding protein 1) | 2 | -0.865 | -3.12 | 3.02 |
| CHD1 (chromodomain helicase DNA binding protein 1) | 3 | -0.724 | -2.13 | 4.2 |
| MTERF2 (mitochondrial transcription termination factor 2) | 1 | -0.713 | -2.05 | 3.59 |
| MTERF2 (mitochondrial transcription termination factor 2) | 2 | -0.162 | 1.83 | 5.1 |
| MTERF2 (mitochondrial transcription termination factor 2) | 3 | -0.25 | 1.21 | 2.71 |
| LOC284009 | 1 | 0.442 | 6.07 | 5.39 |
| LOC284009 | 2 | -0.332 | 0.634 | 3.46 |
| LOC284009 | 3 | 0.217 | 4.49 | 5.28 |
| CDPF1 (cysteine rich DPF motif domain containing 1) | 1 | -0.512 | -0.636 | 3.61 |
| CDPF1 (cysteine rich DPF motif domain containing 1) | 2 | 0.748 | 8.23 | 5.45 |
| CDPF1 (cysteine rich DPF motif domain containing 1) | 3 | -0.464 | -0.298 | 2.96 |
| EZH2 (enhancer of zeste 2 polycomb repressive complex 2 subunit) | 1 | -1.6 | -8.3 | 2.22 |
| EZH2 (enhancer of zeste 2 polycomb repressive complex 2 subunit) | 2 | -0.0774 | 2.42 | 6.18 |
| EZH2 (enhancer of zeste 2 polycomb repressive complex 2 subunit) | 3 | 1.58 | 14.1 | 8.68 |
| ODF2L (outer dense fiber of sperm tails 2 like) | 1 | -0.848 | -3 | 3.16 |
| ODF2L (outer dense fiber of sperm tails 2 like) | 2 | -0.00996 | 2.9 | 5.84 |
| ODF2L (outer dense fiber of sperm tails 2 like) | 3 | 0.16 | 4.09 | 4.33 |
| DLG5 (discs large MAGUK scaffold protein 5) | 1 | -1.26 | -5.87 | 1.57 |
| DLG5 (discs large MAGUK scaffold protein 5) | 2 | 0.893 | 9.25 | 10.1 |
| DLG5 (discs large MAGUK scaffold protein 5) | 3 | -0.25 | 1.21 | 3.85 |
| PAQR4 (progestin and adipoQ receptor family member 4) | 1 | 0.00705 | 3.02 | 5.62 |
| PAQR4 (progestin and adipoQ receptor family member 4) | 2 | 2.24 | 18.8 | 14.4 |
| PAQR4 (progestin and adipoQ receptor family member 4) | 3 | -0.463 | -0.288 | 4.84 |
| PITX2 (paired like homeodomain 2) | 1 | 6.56 (active) | 49.1 | 20.8 |
| PITX2 (paired like homeodomain 2) | 2 | -1.17 | -5.25 | 2.72 |
| PITX2 (paired like homeodomain 2) | 3 | -0.276 | 1.02 | 3.8 |

Targets above whose gene name begins with L or l (3):
| target | siRNA no. | G2 robust z-score | G2 cells, % of GMNN control | raw share of cells in G2 (%) |
| --- | --- | --- | --- | --- |
| LOC284009 | 1 | 0.442 | 6.07 | 5.39 |
| LOC284009 | 2 | -0.332 | 0.634 | 3.46 |
| LOC284009 | 3 | 0.217 | 4.49 | 5.28 |
